Some results were stated once for a whole list of compounds, not compound by compound.
What was measured:
[1] = tested on: Xanthomonas campestris pv. campestris; assay: Example P: Xanthomonas campestris pv. campestris in vitro cell test, formula (II); type: cell-based; details: 20 ppm of active ingredient, 24 h incubation
Experimental: • Solvent: DMSO • Culture medium: LB broth medium (Luria Broth Miller) Sigma • Inoculum: bacteria suspension
Compounds were solubilized in DMSO and the solution used to prepare the required range of concentrations. The final concentration of DMSO used in the assay was ≤1%.
Inoculum was prepared from a pre-culture of bacteria grown in liquid medium and diluted to the desired optical density (OD).
Compounds were evaluated for their ability to inhibit bacteria growth in liquid culture assay. The compounds were added in the desired concentrations to culture medium containing the bacteria suspension. After 24 h of incubation, the efficacy of compounds was determined by spectrometric measurement of bacteria growth. Inhibition was determined by comparing the absorbance values in wells containing the compounds with the absorbance in control wells without active ingredients.

[2] = tested on: Colletotrichum lindemuthianum; assay: Example O: Colletotrichum lindemuthianum in vitro cell test, formula (II); type: cell-based; details: 6 days incubation
Experimental: • Solvent: DMSO • Culture medium: 14.6 g anhydrous D-glucose (VWR), 7.1 g Mycological Peptone (Oxoid), 1.4 g granulated Yeast Extract (Merck), QSP 1 liter • Inoculum: spores suspension Fungicides were solubilized in DMSO and the solution used to prepare the required range of concentrations. The final concentration of DMSO used in the assay was: ≤[…]1%. A spore suspension of C. lindemuthianum was prepared and diluted to the desired spore density. Fungicides were evaluated for their ability to inhibit spores germination and mycelium growth in liquid culture assay. The compounds were added in the desired concentration to the culture medium with spores. After 6 days incubation, fungi-toxicity of compounds was determined by spectrometric measurement of mycelium growth. Inhibition of fungal growth was determined by comparing the absorbance values in wells containing the fungicides with the absorbance in control wells without fungicides.

[3] = tested on: salicylate responsive promoter sequence of the PR1 (pathogenesis-related protein I) gene (AT2G14610); assay: Example K: induction of defense gene expression in Arabidopsis thaliana (PR1 promoter-GFP reporter plants), formula (II); type: in vivo; details: 3rd day after spraying, mock treated leaves = 1.00
Experimental: Arabidopsis thaliana reporter plants containing the coding sequence of a green fluorescent protein (GFP) linked to the salicylate responsive promoter sequence of the PR1 (pathogenesis-related protein I) gene (AT2G14610) were grown for five days and then sprayed with compounds. On the 3rd day after spraying, plant fluorescence was assessed with a MacroFluo instrument from Leica Microsystems (Wetzlar, Germany). Fluorescences were quantified with the Meta-Morph Microscopy Automation & Image Analysis Software (Molecular Devices, Sunnyvale, Calif., United States).
Background fluorescence in mock treated leaves was set as 1.00.

SMILES	efficacy (inhibition of bacteria growth; no direct activity) [1] [%]	efficacy (inhibition of fungal growth; no direct activity) ([2]; 10 ppm of active ingredient) [%]	efficacy (inhibition of fungal growth; no direct activity) ([2]; 20 ppm of active ingredient) [%]	relative fluorescence value ([3]; 75 ppm)	relative fluorescence value ([3]; 300 ppm)
COC(=O)c1cc(Br)c(C#N)s1 [II.052]	≤ 30	≤ 30	≤ 30	above 2	above 2
CCOC(=O)c1sc(C#N)c(Cl)c1Br [II.092]	≤ 30	≤ 30	≤ 30	above 2	above 2
Cc1c(C(=O)O)sc(I)c1Br [II.017]	≤ 30			above 2	above 2
CCOC(=O)c1cc(Br)c(Cl)s1 [II.048]	≤ 30	≤ 30	≤ 30		above 2
O=C(O)c1cc(Br)c(F)s1 [II.035]	≤ 30	≤ 30	≤ 30		
CCOC(=O)c1sc(Cl)c(Br)c1F [II.067]				above 2	above 2
CC(C)COC(=O)c1cc(Cl)c(Br)s1 [II.050]	≤ 30	≤ 30	≤ 30	above 2	above 2
Cc1c(C(=O)O)sc(Cl)c1Br [II.014]	≤ 30			above 2	above 2
COC(=O)c1sc(Cl)c(C#N)c1Cl [II.022]	≤ 30				above 2
O=C(O)c1sc(Br)c(Cl)c1F [II.009]	≤ 30	≤ 30	≤ 30	above 2	above 2
COC(=O)c1sc(Br)c(Cl)c1F [II.020]	≤ 30	≤ 30	≤ 30	above 2	above 2
COC(=O)c1sc(Cl)c(Cl)c1C#N [II.085, methyl 4,5-dichloro-3-cyanothiophene-2-carboxylate]				above 2	above 2
COC(=O)c1cc(Cl)c(Br)s1 [II.047]			≤ 30		above 2
Cc1c(C(=O)O)sc(C#N)c1Br [II.042, 4-bromo-5-cyano-3-methylthiophene-2-carboxylic acid]				above 2	above 2
CCOC(=O)c1sc(I)c(Br)c1C [II.030]	≤ 30	≤ 30			above 2
CCOC(=O)c1sc(Cl)c(C#N)c1Br [II.093]	≤ 30				above 2
N#Cc1sc(C(=O)O)c(Cl)c1Cl [II.088]	≤ 30	≤ 30	≤ 30	above 2	above 2
O=C(O)c1sc(Br)c(Br)c1C(F)F [II.006]	≤ 30	≤ 30	≤ 30	above 2	above 2
O=C(O)c1sc(C(F)F)c(Br)c1Br [II.099]	≤ 30	≤ 30	≤ 30	above 2	above 2
COC(=O)c1sc(Br)c(Br)c1C(F)(F)F [II.019]	≤ 30	≤ 30	≤ 30	above 2	above 2
N#Cc1sc(C(=O)O)c(Cl)c1Br [II.087]	≤ 30	≤ 30	≤ 30	above 2	above 2
Cc1c(C(=O)O)sc(Br)c1I [II.018]	≤ 30			above 2	above 2

SMILES	efficacy (inhibition of bacteria growth; no direct activity) [1] [%]	efficacy (inhibition of fungal growth; no direct activity) ([2]; 10 ppm of active ingredient) [%]	efficacy (inhibition of fungal growth; no direct activity) ([2]; 20 ppm of active ingredient) [%]	relative fluorescence value ([3]; 75 ppm)	relative fluorescence value ([3]; 300 ppm)
Cc1sc(C(=O)OCC(C)C)c(F)c1Br [II.024]	≤ 30	≤ 30	≤ 30		
N#Cc1cc(C(=O)O)sc1Cl [II.041]	≤ 30	≤ 30	≤ 30		
COC(=O)c1sc(Br)c(Br)c1C#N [II.069]				above 2	above 2
COC(=O)c1sc(F)c(Br)c1Br [II.086]	≤ 30	≤ 30	≤ 30		
COC(=O)c1cc(Cl)c(C#N)s1 [II.046, methyl 4-chloro-5-cyanothiophene-2-carboxylate]					above 2
CC(C)COC(=O)c1sc(Cl)c(Br)c1F [II.060]					above 2
COC(=O)c1sc(Br)c(C(F)F)c1Br [II.075]				above 2	above 2
COC(=O)c1sc(Br)c(Cl)c1Br [II.071]				above 2	above 2
Cc1sc(C(=O)O)c(F)c1Br [II.013]	≤ 30	≤ 30	≤ 30		
N#Cc1c(Cl)sc(C(=O)O)c1Cl [II.002]	≤ 30	≤ 30	≤ 30		
CCOC(=O)c1sc(F)c(Br)c1Cl [II.066]					above 2
Cc1c(C(=O)O)sc(Br)c1Cl [II.015]	≤ 30			above 2	above 2
COC(=O)c1cc(F)c(Br)s1 [II.049]	≤ 30	≤ 30	≤ 30		
N#Cc1sc(C(=O)O)c(Br)c1Br [II.061]				above 2	above 2
CCOC(=O)c1sc(Cl)c(C)c1Cl [II.073]	≤ 30	≤ 30	≤ 30		
CCOC(=O)c1sc(Br)c(C#N)c1Cl [II.091]	≤ 30				above 2
Cc1c(C(=O)O)sc(Cl)c1C#N [II.008]	≤ 30	≤ 30	≤ 30		
N#Cc1c(Br)sc(C(=O)O)c1Br [II.044]	≤ 30	≤ 30	≤ 30		
CCOC(=O)c1cc(C#N)c(Cl)s1 [II.090]	≤ 30	≤ 30	≤ 30		
CCOC(=O)c1sc(C#N)c(Cl)c1Cl [II.068]				above 2	above 2
O=C(O)c1cc(Cl)c(F)s1 [II.064]					above 2
N#Cc1c(C(=O)O)sc(Br)c1Br [II.104]				above 2	above 2
